From PMC7819943, “Rice protein-binding microarrays: a tool to detect cis-acting elements near promoter regions in rice”
This is one part of the list.

The chains behind the UniProt entries cited, without tags or fusion partners.
UniProt Q0JBA9, entry or part of it: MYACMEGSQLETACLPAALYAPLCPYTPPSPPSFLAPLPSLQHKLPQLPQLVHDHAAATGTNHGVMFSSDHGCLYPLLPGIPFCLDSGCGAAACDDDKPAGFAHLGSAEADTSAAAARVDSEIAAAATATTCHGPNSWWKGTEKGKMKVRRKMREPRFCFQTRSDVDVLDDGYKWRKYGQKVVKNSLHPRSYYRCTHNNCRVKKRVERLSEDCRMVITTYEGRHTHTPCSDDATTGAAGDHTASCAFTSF

biological target: OsWRKY34 (Oryza sativa, UniProt Q0JBA9 1-250); assay: protein-binding microarray (RPBM); PBS, 2% BSA, 51.3 ng/ul salmon testes DNA, 50 uM zinc acetate, 200 nM TF, 25 C, 1 h; high values mean tight binding; conditions: protein: recombinant; tags: N-terminal polyhistidine and DsRed monomer fusion (pET32a); label: CyDye5-dUTP incorporated in the synthesized complementary strand; 3' TTTTT single-stranded linker to array surface; dsDNA, one strand shown
How it was run: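 For the binding signal, per-feature fluorescence intensity was read in arbitrary units on an Axon 4000B scanner. Before scanning, a 2% BSA-blocked custom Agilent array made double-stranded with Cy5-dUTP was washed after 1 h at 25 °C with 200 nM protein and 50 µM zinc acetate. The proteins were Ni–NTA-purified transcription factors with N-terminal polyhistidine and DsRed fusions, expressed in E. coli BL21-CodonPlus.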

Row | Sequence | binding signal
1 | TTTTTTAATAGATGACGCCGTTGACCTTTTCTCACATGTTCGGAGTCACCTAGTGCAG | 15100 fluorescence intensity (a.u.)
2 | CATCGGATATTGTATTATGGTGTTGTATGGGTTGTTCGGGCGGAGTCACCTAGTGCAG | 14000 fluorescence intensity (a.u.)
3 | GTTGGGGTGAAATTTCTTGGCGATGGCGCCGTACTCCTTGCGGAGTCACCTAGTGCAG | 8510 fluorescence intensity (a.u.)
4 | TCCGGCCCATTAATCTCGGCCCAACATCTCGTTCTCACCTCGGAGTCACCTAGTGCAG | 11900 fluorescence intensity (a.u.)
5 | ACTTCGTACCCTTAGACTGTAATGATTTTTTTTAAAAAAACGGAGTCACCTAGTGCAG | 9000 fluorescence intensity (a.u.)
6 | TTGGTCATAGTTGCTTGGATAATTTGACCAAGGAAGATGGCGGAGTCACCTAGTGCAG | 8500 fluorescence intensity (a.u.)
7 | CCGTTACGTTTTCCGTTCCCGTTCCAGCCGCGTTTCCTCTCGGAGTCACCTAGTGCAG | 11100 fluorescence intensity (a.u.)
8 | GCTTCTCACTCTGAATATCTGATTTTTTTTTAAAAAAAAACGGAGTCACCTAGTGCAG | 8850 fluorescence intensity (a.u.)
9 | GCCTGCCTCTTTCTTCTTCTCTTACGAAACCAAAACAACACGGAGTCACCTAGTGCAG | 8150 fluorescence intensity (a.u.)
10 | TTTTTAATTTTATTTATACTCAATTTATCATGCACTAATGCGGAGTCACCTAGTGCAG | 10800 fluorescence intensity (a.u.)
11 | GTGTTTTTTTTCTATTTTTCTTCCTGTTTCTTTTGTTTTTCGGAGTCACCTAGTGCAG | 12700 fluorescence intensity (a.u.)
12 | CGACGACGGCTTCCCGGCGCCGCGCCTCTTCTCGCAGGGCCGGAGTCACCTAGTGCAG | 8460 fluorescence intensity (a.u.)
13 | TTACCTTTATATATTTTTTCCAACTAGCTGCTGCATTTTACGGAGTCACCTAGTGCAG | 9070 fluorescence intensity (a.u.)
14 | ACTTAGCACTTGATTACATATATTTTGGTCGTGTAGTTGTCGGAGTCACCTAGTGCAG | 11300 fluorescence intensity (a.u.)
15 | GCGACTCATTGGGCACTTCCCTACCAACTCCGTGAGTTATCGGAGTCACCTAGTGCAG | 8670 fluorescence intensity (a.u.)
16 | GTCTTATTTAAATTTTTTTGAAATGTTTGTTGACCATTCGCGGAGTCACCTAGTGCAG | 8700 fluorescence intensity (a.u.)
17 | GTACGGAACAAAACACCCGCATTTCACCCGCATTTCTTAACGGAGTCACCTAGTGCAG | 9610 fluorescence intensity (a.u.)
18 | TGAGTCAGTGGTTGGTCATCGTTGTCCGCTTTGTTTGGACCGGAGTCACCTAGTGCAG | 9290 fluorescence intensity (a.u.)
19 | CGCGGATCCTTCGTGGGTGGTGATGGGAGGTGCGGATCCGCGGAGTCACCTAGTGCAG | 11800 fluorescence intensity (a.u.)
20 | GGCTCATGCATGGCGCTATGTACTGTTAATTCCGTTCCTTCGGAGTCACCTAGTGCAG | 8850 fluorescence intensity (a.u.)
21 | CCTACTGTGGGCCCCACACAAATTCCTCCTCACATCTCCTCGGAGTCACCTAGTGCAG | 8450 fluorescence intensity (a.u.)
22 | CGGGTTGGCATCGTTGTCGTTGTCGAGGAGGCTGAGGAGGCGGAGTCACCTAGTGCAG | 8510 fluorescence intensity (a.u.)
23 | CATATTATGATCTTTCTCTTTCTTTCTTTTTTATACCTTTCGGAGTCACCTAGTGCAG | 11500 fluorescence intensity (a.u.)
24 | TATCTATTACGAGTTCATTCTCAATCCTGCAATCCTTCAGCGGAGTCACCTAGTGCAG | 8090 fluorescence intensity (a.u.)
25 | TGGAGCGGGTTTGGGTAGAGCTCCACGTCGCGGTGGGCTTCGGAGTCACCTAGTGCAG | 8880 fluorescence intensity (a.u.)
26 | GCCCGGTGAAGCATCCGTACTCACGCTCATCCTCTTCCTCCGGAGTCACCTAGTGCAG | 8140 fluorescence intensity (a.u.)
27 | GCCCTGTCTGCTGCTGCGCACAGTTCTTTTCATCCTTTTCCGGAGTCACCTAGTGCAG | 8710 fluorescence intensity (a.u.)

Row | Sequence | binding signal
28 | GTTCCATCGCATGCTCAACTTGGGGCAGGTCAGGTAAGCTCGGAGTCACCTAGTGCAG | 8670 fluorescence intensity (a.u.)
29 | AGACCAATTCCTCGCGCCACCTCCACCACCGCCTCCGCCGCGGAGTCACCTAGTGCAG | 10100 fluorescence intensity (a.u.)
30 | TTTTGCCAAATTACAGATGCATCTGTTTTGAGTTGTCTTACGGAGTCACCTAGTGCAG | 8690 fluorescence intensity (a.u.)
31 | TCCATGACAGAGAAAGCAAGGGAAGAATTCTGGGTAATCACGGAGTCACCTAGTGCAG | 8790 fluorescence intensity (a.u.)
32 | CCACAGCGCCTCCACTGCCTGCAGGGACGCCACCGCTACCCGGAGTCACCTAGTGCAG | 8450 fluorescence intensity (a.u.)
33 | TGCTGCTCATTTGTCCCTGTCTCAACACCCCTTCTATCTACGGAGTCACCTAGTGCAG | 10000 fluorescence intensity (a.u.)
34 | GAGGTAGAAGTGAATCCGACATTTTTTATTTGATGCTTACCGGAGTCACCTAGTGCAG | 8660 fluorescence intensity (a.u.)
35 | GCTTCTACAATCGGATGGATTCACCATTGATTCTCGTTTTCGGAGTCACCTAGTGCAG | 8940 fluorescence intensity (a.u.)
36 | CAAGTACATTCGAGGCCAGTATTTACACCATCCTCTATGCCGGAGTCACCTAGTGCAG | 9930 fluorescence intensity (a.u.)
37 | CTCGGTCTTGGTCTTTTCGGTTTGGTCTAAATCTGTCCACCGGAGTCACCTAGTGCAG | 9600 fluorescence intensity (a.u.)
38 | CTTATTTTACCTTTTGATGATGCTGTTCCTGTTCTCTCTCCGGAGTCACCTAGTGCAG | 12000 fluorescence intensity (a.u.)
39 | GTCAACCGTCCATAAAAAATTTTCGGCTCCCGCCGTGTTCCGGAGTCACCTAGTGCAG | 9440 fluorescence intensity (a.u.)
40 | ACTAATCATTTTCTTAGGCCCTGTTTCAACTCATTTATTTCGGAGTCACCTAGTGCAG | 10300 fluorescence intensity (a.u.)
41 | ACTATTAAACTGTATGCTTTCCTTAAAAAAGTTTCTATATCGGAGTCACCTAGTGCAG | 8830 fluorescence intensity (a.u.)
42 | GCGTCCAATCCCTGAATCCGCTGGCCCGCGTCGAAACCTACGGAGTCACCTAGTGCAG | 8710 fluorescence intensity (a.u.)
43 | AAATTGTCCTTTTCATTCAGGCCTTGTTTAGTTCGCGAAACGGAGTCACCTAGTGCAG | 8410 fluorescence intensity (a.u.)
44 | CATCCATTGTTTCATTTGCTAACTGATGTAGTTATTACTTCGGAGTCACCTAGTGCAG | 9080 fluorescence intensity (a.u.)
45 | GAGAGGCCCATTTAGCTATCACTGTATTGGTTAACCGGTTCGGAGTCACCTAGTGCAG | 8640 fluorescence intensity (a.u.)
46 | TGTATCATTTGTATATTGTCTTTGATATGTTGTCTTCCTCCGGAGTCACCTAGTGCAG | 11100 fluorescence intensity (a.u.)
47 | CCCCGACTCATCGTCTTCCACGGCCTCACCGCGAAGCCGCCGGAGTCACCTAGTGCAG | 8200 fluorescence intensity (a.u.)
48 | AAAACCCATCCATAATCTTGGACTAATTTGCGAGACGAATCGGAGTCACCTAGTGCAG | 8030 fluorescence intensity (a.u.)
49 | GCCTCAGTAGCGTGCGTTCAACACTCTCCTTTCTCAAAACCGGAGTCACCTAGTGCAG | 8830 fluorescence intensity (a.u.)
50 | AGAGTTTTATTCATGTTTTGTTTTCTATCGCATGTATTGACGGAGTCACCTAGTGCAG | 13700 fluorescence intensity (a.u.)
51 | CATTTTGCCACACTTGAGGTAGATCAGTTTGACCAAATGTCGGAGTCACCTAGTGCAG | 11000 fluorescence intensity (a.u.)
52 | CTCCCTATTTATATGTGCACCACGATCCATCATATCGCTTCGGAGTCACCTAGTGCAG | 9790 fluorescence intensity (a.u.)
53 | CCTCCAACGCCGCACGCCCGCACCCTAATCGCCGCCCGCGCGGAGTCACCTAGTGCAG | 9040 fluorescence intensity (a.u.)
54 | TTTTCTATTTTTTTTATTTTTTAATACGTATGTATATAAACGGAGTCACCTAGTGCAG | 8320 fluorescence intensity (a.u.)

Single entries from the entries so far:
GCCTCAGTAGCGTGCGTTCAACACTCTCCTTTCTCAAAACCGGAGTCACCTAGTGCAG – binding signal: 8830 fluorescence intensity (a.u.)
TTTTCTATTTTTTTTATTTTTTAATACGTATGTATATAAACGGAGTCACCTAGTGCAG – binding signal: 8320 fluorescence intensity (a.u.)
GAGAGGCCCATTTAGCTATCACTGTATTGGTTAACCGGTTCGGAGTCACCTAGTGCAG – binding signal: 8640 fluorescence intensity (a.u.)
